The list shows a part of the results. Shown are side measurements of this screen, not its main read-out; they come without a call. The list favours compounds with an active or inconclusive main result. Words in brackets tell the shape of the fitted curve; partial curves, single points and poor fits give uncertain potencies.
Experiment: qHTS Assay for Lipid Storage Modulators in Drosophila S3 Cells;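 for cell number change: cells counted by Cell Tracker Red CMTPX staining in the red channel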
Conditions: BODIPY lipid droplet fluorescence, 18-24 h; for cell number change: measured here: cell count max response, cells fed with added oleic acid
In short: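 Drosophila S3 cells got compounds at several concentrations plus oleic acid (400 uM solution). Laser-scanning cytometry with 488 nm excitation read lipid droplets at 500-530 nm and cells at 575-640 nm. Percent activity was relative to 20 uM Triacsin C.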

[1] = measured here: lipid fluorescence (Fed channel) AC50, cells fed with added oleic acid
[2] = measured here: cell number channel AC50, cells fed with added oleic acid

## O=C(CSc1nnc(COc2ccccc2)n1-c1ccccc1)c1cccs1
  cell number change: -7.7%

## CC(=O)CC(c1ccccc1)c1c(O)c2ccccc2oc1=O (centres undefined)
  cell number change: 5.78%
[1]
  AC50: 0.58 µM [falling, full curve, poor fit]

## CC(C)(C)N(Cc1ccccc1)C(=O)COC(=O)CN1C(=O)NC2(CCCC2)C1=O
  cell number change: -23.8%
[1]
  AC50: 29.1 µM [rising, single point]

## Cc1ccc2c(c1)C(c1ccccc1)N(C(=O)C(C)C)CC(=O)N2 (centres undefined)
[2]
  AC50: 2.31 µM [rising, partial curve, poor fit]
[1]
  AC50: 0.164 µM [rising, full curve, poor fit]

## CC(C)(C)NC(=O)CSc1nc2[nH]ncc2c(=O)[nH]1
  cell number change: -19.7%
[1]
  AC50: 0.0058 µM [falling, full curve, poor fit]

## CC1=C/C(=C(\c2cc(C)c(O)c(Br)c2)c2ccccc2S(=O)(=O)O)C=C(Br)C1=O
  cell number change: -10.1%
[1]
  AC50: 0.00517 µM [rising, full curve, poor fit]

## N/C(=N\OC(=O)c1ccc(Cl)cc1)c1[nH]ncc1Br
  cell number change: 13.4%
[1]
  AC50: 16.4 µM [falling, partial curve]

## CNC(=O)c1ccc(-c2sc3nc(N4CCOCC4)c4c(c3c2N)CC(C)(C)OC4)o1
  cell number change: -17%
[1]
  AC50: 6.51 µM [falling, single point]

## Clc1cc(Br)ccc1OCCCNCc1ccccc1
  cell number change: -34.2%
[2]
  AC50: 32.6 µM [falling, single point]

## O=C(COC(=O)/C=C/c1ccccc1)NC1CCCCCC1
  cell number change: -1.08%
[2]
  AC50: 6.51 µM [falling, single point]
[1]
  AC50: 6.51 µM [falling, single point]

## CC(=O)Nc1ccc(NC(=O)COc2ccc(Cl)cc2Cl)cc1
[1]
  AC50: 29.1 µM [rising, single point]

## O=C(Oc1ccc2ccccc2c1)C1CCC1
  cell number change: -8.07%

## COc1cccc(C2C(C#N)=C(N)N(N(C)C)C3=C2C(=O)CC(C)(C)C3)c1 (centres undefined)
[1]
  AC50: 0.731 µM [rising, full curve, poor fit]

## C/C(=N\NC(=O)c1c(Cl)c(C)nn1C)c1cccc(NC(=O)C2CCCC2)c1
  cell number change: -51.5%
[2]
  AC50: 32.6 µM [falling, single point]
[1]
  AC50: 29.1 µM [falling, single point]

## N#C/C(=C/Nc1ccccc1)c1ccsc1
[2]
  AC50: 0.731 µM [rising, single point]

## Cc1ccccc1NC(=O)c1ccc2snnc2c1
[2]
  AC50: 0.517 µM [rising, partial curve, poor fit]
[1]
  AC50: 0.231 µM [rising, partial curve, poor fit]

## COC(=O)c1c(NC(=O)CN2CCN(C(=O)c3ccco3)CC2)c2cc(C)ccc2n1C
  cell number change: -16.2%
[1]
  AC50: 29.1 µM [falling, single point]

## COC(=O)c1nnc(-c2ccccc2)c(-c2ccccc2)n1
  cell number change: 9.98%
[1]
  AC50: 0.0517 µM [falling, partial curve]

## CCOC(=O)Cc1csc(SCc2nc3sc4c(c3c(=O)[nH]2)CCC4)n1
  cell number change: 6.11%
[2]
  AC50: 0.651 µM [falling, single point]
[1]
  AC50: 0.651 µM [falling, full curve]

## C/C=C/C(=O)Nc1cccc(C2=NOC3(C2)C[C@@H](C(N)=O)N(C(=O)/C(C)=C/C)C3)c1 (some centres undefined)
  cell number change: 20.6%
[1]
  AC50: 29.1 µM [rising, single point]

## COc1ccc(Cl)cc1NC(=S)Nc1ccccc1F
  cell number change: 147%
[2]
  AC50: 29.1 µM [rising, partial curve, poor fit]

## C1CCN(c2nc3nonc3nc2NCC2CCOCC2)CC1
  cell number change: 9.25%
[1]
  AC50: 0.231 µM [falling, full curve]

## O=C(Cn1ncc2c3ccccc3n(Cc3cccc(Cl)c3)c2c1=O)NCc1ccccn1
  cell number change: 19.8%
[1]
  AC50: 29.1 µM [rising, single point]

## CC1CCCC(C)N1C(=O)c1cc(-c2ccc3c(c2)OCO3)on1 (centres undefined)
  cell number change: -6.67%

## Cc1cc(Br)ccc1NC(=O)CN1C(=S)NC(C)(C)CC1C (centres undefined)
  cell number change: 30.5%
[2]
  AC50: 6.51 µM [rising, single point]

## Cn1cccc1/C=N/N1CCN(Cc2ccccc2)CC1
  cell number change: 29.9%
[1]
  AC50: 13 µM [rising, partial curve]

## O=C(CSc1nc2ccccc2s1)NNC(=S)Nc1ccccc1
  cell number change: -12%
[2]
  AC50: 6.51 µM [rising, single point]
[1]
  AC50: 6.51 µM [rising, partial curve]

## O=C(NCCc1ccccc1)c1ccc2nc(N3CCOCC3)sc2c1
  cell number change: -2.1%

## CCOc1ccc(OCC)c(NC(=O)C2CCCN2S(=O)(=O)c2cccc3cccnc23)c1 (centres undefined)
  cell number change: -9.21%
[1]
  AC50: 0.82 µM [rising, partial curve]

## CCS(=O)(=O)c1ncc(Cl)c(C(=O)Nc2ccccc2OC)n1
  cell number change: -32.3%
[2]
  AC50: 0.82 µM [falling, full curve]
[1]
  AC50: 1.64 µM [falling, full curve]

## O=C(c1ccccc1Cc1ccccc1)N1CCN(S(=O)(=O)c2ccccc2)CC1
  cell number change: -19.3%
[1]
  AC50: 11.6 µM [falling, single point]

## CCO[C@@H]1OC(C(=O)N2CCN(C)CC2)=C[C@H](C(C)(C)C)[C@H]1CCCO
  cell number change: 1.02%
[1]
  AC50: 0.0517 µM [falling, full curve, poor fit]

## NC(=O)c1ccc2c(=O)n3c(-c4cccs4)csc3nc2c1
  cell number change: 15.3%
[1]
  AC50: 13 µM [rising, partial curve, poor fit]

## Cc1ccnc(N(C(=O)c2cccs2)C(=O)c2cccs2)c1
[1]
  AC50: 16.4 µM [rising, partial curve]

## CCCCn1c(=O)n(CC(O)c2ccccc2)c(=O)c2c1ncn2C1CCCC1 (centres undefined)
  cell number change: -22.8%
[1]
  AC50: 0.0291 µM [rising, full curve, poor fit]

## CC(=O)Nc1ccc(C(=O)n2cnc3cc(C)c(C)cc32)cc1
  cell number change: -90.6%
[2]
  AC50: 29.1 µM [falling, single point]

## CC1CCCCN1CCCNC(=O)C1CCCN(c2ncnc3c2nc2n3CCCCC2)C1 (centres undefined)
  cell number change: 35.5%
[2]
  AC50: 32.6 µM [rising, single point]
[1]
  AC50: 29.1 µM [falling, single point]

## Cc1cc(C(=O)OCC(=O)Nc2ccccc2)c(C)o1
[1]
  AC50: 23.1 µM [rising, single point]

## COc1cc2c(cc1OC)C(C)N(CC(=O)Nc1ccc(C)c(S(=O)(=O)N3CCOCC3)c1)CC2 (centres undefined)
  cell number change: -7.16%
[1]
  AC50: 0.58 µM [falling, single point]

## CCCCC1CC(/C(C)=N/NC(N)=O)OC1=O (centres undefined)
  cell number change: -32.5%
[2]
  AC50: 0.0731 µM [falling, full curve, poor fit]
[1]
  AC50: 0.0164 µM [falling, full curve, poor fit]

## COc1ccccc1N1CCN(Cc2cc3c(cc2O)OCO3)CC1
  cell number change: 1.28%
[1]
  AC50: 29.1 µM [falling, single point]

## COc1ccc(C(=O)N[C@H](C(=O)NCc2cccs2)C(C)C)cc1
[2]
  AC50: 0.0731 µM [rising, partial curve, poor fit]

## Cc1nc(N2CCN(S(=O)(=O)c3ccccc3C#N)CC2)c2c(-c3ccccc3)csc2n1
  cell number change: -5.23%
[1]
  AC50: 0.58 µM [falling, single point]

## O=C1NC2(CCCCC2)C(=O)N1Cc1cc(=O)n2ccsc2n1
  cell number change: -21%
[1]
  AC50: 3.66 µM [falling, single point]

## O=C(Nc1ccc(N2CCOCC2)cc1)C1CCN(C(=O)OCc2ccccc2)CC1
  cell number change: -16%
[1]
  AC50: 0.651 µM [falling, single point]

## c1cc(CNc2ccc(N3CCOCC3)cc2)ccn1
  cell number change: 10.3%
[1]
  AC50: 29.1 µM [falling, single point]

## CCOC(=O)CSc1ncnc2c1cnn2-c1ccc(C)cc1
  cell number change: -3.83%

## CCCNC(=O)C1Cc2cc(S(=O)(=O)N3CCCC3)ccc2N1C(C)=O (centres undefined)
[2]
  AC50: 0.0058 µM [falling, full curve, poor fit]

## Cc1ccc(N2CC(C(=O)N3CCN(c4ccccc4)CC3)CC2=O)cc1 (centres undefined)
  cell number change: -20.3%
[2]
  AC50: 0.651 µM [falling, full curve]

## COC(=O)c1ccccc1NC(=O)/C=C/c1cc(OC)c(OC)c(OC)c1
  cell number change: -19.8%
[2]
  AC50: 0.731 µM [rising, partial curve, poor fit]

## Cc1ccc(-n2nc(C)c3c2OC(N)=C(C#N)C3c2ccccc2F)cc1 (centres undefined)
  cell number change: -25.6%
[1]
  AC50: 25.9 µM [falling, partial curve, poor fit]

## CCCC(CCC(=O)Nc1ccc(S(N)(=O)=O)cc1)C(=O)O (centres undefined)
  cell number change: -43.5%
[2]
  AC50: 0.00651 µM [falling, full curve, poor fit]
[1]
  AC50: 0.651 µM [falling, single point]

## O=C(C[n+]1cccc(C(=O)N/N=C/c2ccc(Br)cc2)c1)c1ccccc1
  cell number change: 0.268%
[1]
  AC50: 29.1 µM [rising, single point]

## Cc1nc(C)c(C(=O)Nc2ncc([N+](=O)[O-])s2)o1
  cell number change: -53.6%
[2]
  AC50: 2.91 µM [falling, partial curve]
[1]
  AC50: 0.651 µM [falling, full curve]

## O=C(CSc1ncccn1)N/N=C/c1ccc2c(c1)OCO2
  cell number change: 68.8%
[2]
  AC50: 2.91 µM [rising, partial curve]
[1]
  AC50: 29.1 µM [rising, single point]

## O=C(CSc1ncnc2c1nnn2-c1ccc(F)cc1)NCc1ccco1
  cell number change: -43.1%
[2]
  AC50: 23.1 µM [falling, partial curve, poor fit]
[1]
  AC50: 23.1 µM [falling, single point]

## Cc1cc(C)nc(SCC(=O)N/N=C/C=C/c2ccccc2)n1
  cell number change: 6.26%
[2]
  AC50: 6.51 µM [falling, single point]

## Cc1c(F)cccc1NS(=O)(=O)c1ccc2c(c1)c(=O)n(C)c(=O)n2C
  cell number change: 3.75%

— PubChem BioAssay AID2685 (National Center for Advancing Translational Sciences (NCATS), 2010)
